We go through 57 variants from the supplement of paper PMC6445147.

Values scatter widely in this assay.

The chains are these.
B1: human tRNA-Pro; a variant is named by its letters at N, in order (parent)
chain: GGCTCGTTGGTCTAGNGGTATGATTCTCGCTTAGGGTGCGAGAGGTCCCGGGTTCNNATCCCGGACGAGCCC

Variants of B1 are the subject of series [1]. The series can be described thus: tRNA Pol-III promoter activity, log2 (circRNA frequency / plasmid DNA frequency) (log2 ratio); higher = stronger promoter activity. Conditions: HEK293T; construct: no Pol-II promoter ((-)CMV library).
Variants of B1 are the subject of series [2]. The series can be described thus: tRNA 3' processing efficiency (processed reads / all reads, maximum-likelihood estimate) (fraction); higher = more efficient 3' processing. Conditions: HEK293T; construct: no Pol-II promoter ((-)CMV library).
Variants of B1 are the subject of series [3]. The series can be described thus: tRNA 5' processing efficiency (processed reads / all reads, maximum-likelihood estimate) (fraction); higher = more efficient 5' processing. Conditions: HEK293T; construct: CMV Pol-II promoter ((+)CMV library, decapped).

Regarding GAG G9A T19G A58C, the “tRNA Pol-III promoter activity (log2)” value in series [1] was found to be 6.03. In addition, in series [2], the “tRNA 3' processing efficiency” value is 0.25.

Take AAG A20T A58T: in series [1], the “tRNA Pol-III promoter activity (log2)” value came to 3.71. Moreover, the “tRNA 3' processing efficiency” value in series [2] was 0.17.

As to GAG G15A T59C, the “tRNA Pol-III promoter activity (log2)” value in series [1] is 5.81. For the same variant, in series [2], the “tRNA 3' processing efficiency” value is 0.08.

For the variant GAG G9A A14T T53C, the “tRNA Pol-III promoter activity (log2)” value in series [1] is 3.36. Besides, the “tRNA 3' processing efficiency” value in series [2] is 0.6.

In the case of TAG G15A, the “tRNA Pol-III promoter activity (log2)” value in series [1] is 4.93. Moreover, the “tRNA 3' processing efficiency” value in series [2] is 0.3.

As for TAG G15C, the “tRNA Pol-III promoter activity (log2)” value in series [1] was 5.93. In series [2], the “tRNA 3' processing efficiency” value was 0.5.

For GAG A14G, the “tRNA Pol-III promoter activity (log2)” value in series [1] turned out to be 2.25. Moreover, in series [2], the “tRNA 3' processing efficiency” value was 0.32.

As for GAG A14T, the “tRNA Pol-III promoter activity (log2)” value in series [1] came out at 2.04. In addition, the “tRNA 3' processing efficiency” value in series [2] is 0.29.

On to TAG A58T, for which the “tRNA Pol-III promoter activity (log2)” value in series [1] stood at 2. Moreover, the “tRNA 3' processing efficiency” value in series [2] was 0.4.

Consider TAG A58C, for which the “tRNA Pol-III promoter activity (log2)” value in series [1] worked out at 3.85. In series [2], the “tRNA 3' processing efficiency” value is 0.73. Moreover, the “tRNA 5' processing efficiency” value in series [3] was 0.2.

On to TAG A58G, for which, in series [1], the “tRNA Pol-III promoter activity (log2)” value stood at 3.26. Besides, the “tRNA 3' processing efficiency” value in series [2] is 0.3.

GAG A14C A58T: the “tRNA Pol-III promoter activity (log2)” value in series [1] turned out to be 3.94. For the same variant, the “tRNA 3' processing efficiency” value in series [2] was 0.25.

In the case of GAG A14C A58G, the “tRNA Pol-III promoter activity (log2)” value in series [1] was 3.79. Further, the “tRNA 3' processing efficiency” value in series [2] was 0.38.

Consider GAG A14C A58C, for which the “tRNA Pol-III promoter activity (log2)” value in series [1] was 5.93. Besides, the “tRNA 3' processing efficiency” value in series [2] was 0.25.

As for GAG A14G T19C, the “tRNA Pol-III promoter activity (log2)” value in series [1] turned out to be 8.1. Besides, in series [2], the “tRNA 3' processing efficiency” value was 0.67.

Regarding GAG A14G T19G, the “tRNA Pol-III promoter activity (log2)” value in series [1] came out at 2.78. For the same variant, the “tRNA 3' processing efficiency” value in series [2] is 0.16.

For GAG A14G T19A, the “tRNA Pol-III promoter activity (log2)” value in series [1] is 4.4. Further, the “tRNA 3' processing efficiency” value in series [2] was 0.36.

On to GAG G9T, for which the “tRNA Pol-III promoter activity (log2)” value in series [1] turned out to be 0.287. Also, in series [2], the “tRNA 3' processing efficiency” value is 0.56.

As for GAG G9C, in series [1], the “tRNA Pol-III promoter activity (log2)” value worked out at 0.135. For the same variant, the “tRNA 3' processing efficiency” value in series [2] was 0.43.

For the variant GAG G9A, in series [1], the “tRNA Pol-III promoter activity (log2)” value was found to be 1.75. Further, in series [2], the “tRNA 3' processing efficiency” value was 0.38.

With GAG A20G T59G, the “tRNA Pol-III promoter activity (log2)” value in series [1] worked out at 3.34. In addition, the “tRNA 3' processing efficiency” value in series [2] is 0.25.

Consider AAG A20T, for which the “tRNA Pol-III promoter activity (log2)” value in series [1] was determined as 5.67. In series [2], the “tRNA 3' processing efficiency” value is 0.5.

As for GAG G15A G18T, the “tRNA Pol-III promoter activity (log2)” value in series [1] turned out to be 3.21. Moreover, the “tRNA 3' processing efficiency” value in series [2] was 0.5.

With TAG G15C A58G, the “tRNA Pol-III promoter activity (log2)” value in series [1] was 8.63. Further, the “tRNA 3' processing efficiency” value in series [2] is 0.19.

In the case of GAG A14T T19G, the “tRNA Pol-III promoter activity (log2)” value in series [1] amounted to 3.36. For the same variant, in series [2], the “tRNA 3' processing efficiency” value was 0.38.

Regarding CAG G9A, in series [1], the “tRNA Pol-III promoter activity (log2)” value was 4.03. Besides, the “tRNA 3' processing efficiency” value in series [2] was 0.5.

As to GAG A20T A58G T59A, in series [1], the “tRNA Pol-III promoter activity (log2)” value is 7.1. Besides, the “tRNA 3' processing efficiency” value in series [2] is 0.44.

For GAG G15C T59C, the “tRNA Pol-III promoter activity (log2)” value in series [1] was determined as 6.08. The “tRNA 3' processing efficiency” value in series [2] was 0.25.

Turning to TAG C55T, the “tRNA Pol-III promoter activity (log2)” value in series [1] was 2.11. In addition, in series [2], the “tRNA 3' processing efficiency” value is 0.4.

Regarding TAG A20T, in series [1], the “tRNA Pol-III promoter activity (log2)” value came to 3.13. In series [2], the “tRNA 3' processing efficiency” value is 0.25.

For the variant TAG A20C, the “tRNA Pol-III promoter activity (log2)” value in series [1] was found to be 4.85. In addition, the “tRNA 3' processing efficiency” value in series [2] was 0.37.

On to GAG A14T T53A A58T, for which the “tRNA Pol-III promoter activity (log2)” value in series [1] worked out at 4.34. For the same variant, the “tRNA 3' processing efficiency” value in series [2] is 0.25.

On to GAG A14C T19A, for which the “tRNA Pol-III promoter activity (log2)” value in series [1] is 4.75. The “tRNA 3' processing efficiency” value in series [2] is 0.14.

On to GAG A14C T19C, for which, in series [1], the “tRNA Pol-III promoter activity (log2)” value worked out at 4.61. In series [2], the “tRNA 3' processing efficiency” value is 0.5.

Take CAG G15C: the “tRNA Pol-III promoter activity (log2)” value in series [1] stood at 4.66. Moreover, the “tRNA 3' processing efficiency” value in series [2] was 0.35.

For the variant CAG G15A, the “tRNA Pol-III promoter activity (log2)” value in series [1] turned out to be 4.75. Moreover, the “tRNA 3' processing efficiency” value in series [2] is 0.57.

In the case of TAG A14T T19C, in series [1], the “tRNA Pol-III promoter activity (log2)” value was found to be 5.2. In addition, in series [2], the “tRNA 3' processing efficiency” value is 0.56.

For GAG G9A G15A, the “tRNA Pol-III promoter activity (log2)” value in series [1] was found to be 0.928. Further, in series [2], the “tRNA 3' processing efficiency” value was 0.67.

For the variant AAG A14C G17T, the “tRNA Pol-III promoter activity (log2)” value in series [1] stood at 3.93. The “tRNA 3' processing efficiency” value in series [2] is 0.6.

As to TAG A14C, the “tRNA Pol-III promoter activity (log2)” value in series [1] was 3.57. In addition, the “tRNA 3' processing efficiency” value in series [2] was 0.43.

As to TAG A14T, the “tRNA Pol-III promoter activity (log2)” value in series [1] came to 2.16. Moreover, the “tRNA 3' processing efficiency” value in series [2] is 0.14.

As to TAG A14G, in series [1], the “tRNA Pol-III promoter activity (log2)” value stood at 4.04. Besides, the “tRNA 3' processing efficiency” value in series [2] is 0.18.

For the variant GAG G9A T59C, the “tRNA Pol-III promoter activity (log2)” value in series [1] turned out to be 3.77. The “tRNA 3' processing efficiency” value in series [2] is 0.2.

Regarding GAG A58T T59A, the “tRNA Pol-III promoter activity (log2)” value in series [1] is 4.13. Moreover, the “tRNA 3' processing efficiency” value in series [2] is 0.25.

Regarding GAG G9A A20T, in series [1], the “tRNA Pol-III promoter activity (log2)” value amounted to 2.79. In addition, the “tRNA 3' processing efficiency” value in series [2] is 0.5.

For GAG G9A A14G, the “tRNA Pol-III promoter activity (log2)” value in series [1] was found to be 2.86. Besides, the “tRNA 3' processing efficiency” value in series [2] is 0.25. For the same variant, the “tRNA 5' processing efficiency” value in series [3] is 0.6.

Take GAG G15C G17T: the “tRNA Pol-III promoter activity (log2)” value in series [1] turned out to be 3.71. For the same variant, the “tRNA 3' processing efficiency” value in series [2] was 0.5.

On to GAG G9A T19A, for which the “tRNA Pol-III promoter activity (log2)” value in series [1] was determined as 1.84. For the same variant, in series [2], the “tRNA 3' processing efficiency” value was 0.25.

For the variant GAG A20G A58C, in series [1], the “tRNA Pol-III promoter activity (log2)” value stood at 3.08. Moreover, the “tRNA 3' processing efficiency” value in series [2] was 0.2.

For GAG A20G A58T, in series [1], the “tRNA Pol-III promoter activity (log2)” value turned out to be 5.45. Besides, in series [2], the “tRNA 3' processing efficiency” value is 0.62.

For the variant GAG A20G, the “tRNA Pol-III promoter activity (log2)” value in series [1] is 0.557. The “tRNA 3' processing efficiency” value in series [2] was 0.5.

Take GAG A20C: the “tRNA Pol-III promoter activity (log2)” value in series [1] was 2.37. In addition, the “tRNA 3' processing efficiency” value in series [2] is 0.23.

As to GAG A20T, the “tRNA Pol-III promoter activity (log2)” value in series [1] worked out at 1.01. In series [2], the “tRNA 3' processing efficiency” value was 0.38. In addition, the “tRNA 5' processing efficiency” value in series [3] is 0.11.

In the case of TAG G9A, the “tRNA Pol-III promoter activity (log2)” value in series [1] turned out to be 2.85. In addition, the “tRNA 3' processing efficiency” value in series [2] was 0.22.

Take TAG G9T: the “tRNA Pol-III promoter activity (log2)” value in series [1] is 2.31. Further, in series [2], the “tRNA 3' processing efficiency” value is 0.6.

For AAG G9A, the “tRNA Pol-III promoter activity (log2)” value in series [1] is 1.85. Moreover, in series [2], the “tRNA 3' processing efficiency” value is 0.25.

Consider GAG A14T G18T, for which the “tRNA Pol-III promoter activity (log2)” value in series [1] was determined as 2.18. In addition, the “tRNA 3' processing efficiency” value in series [2] is 0.4.
